From PubChem BioAssay (EPA / NIEHS)
This list was built around the results that the source calls inconclusive (neither active nor inactive); the mix of calls is not that of the screen. How the source made its calls: active means hit-call score of the fitted dose curve at least 0.9, where 1 is the maximum; inconclusive means response in the unintended direction; inactive means score below 0.9. Where the call is inconclusive, the potency comes from a doubtful curve fit.

Amino acid sequences for entries named in this document (tags omitted). A change or cut given only in a name is not applied to a line headed by its entry.
UniProt P17706: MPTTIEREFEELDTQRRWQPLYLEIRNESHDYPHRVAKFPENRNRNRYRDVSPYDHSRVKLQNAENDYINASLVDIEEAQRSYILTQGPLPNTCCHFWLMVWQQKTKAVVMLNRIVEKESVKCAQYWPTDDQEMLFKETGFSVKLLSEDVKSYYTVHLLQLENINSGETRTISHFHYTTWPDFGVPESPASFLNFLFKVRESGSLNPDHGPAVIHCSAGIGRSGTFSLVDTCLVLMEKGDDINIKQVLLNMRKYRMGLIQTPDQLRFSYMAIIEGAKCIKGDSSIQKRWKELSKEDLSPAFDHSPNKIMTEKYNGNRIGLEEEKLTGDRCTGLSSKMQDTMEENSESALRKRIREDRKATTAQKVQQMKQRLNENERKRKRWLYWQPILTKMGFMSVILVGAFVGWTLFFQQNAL

What follows are molecules tested against human Protein Tyrosine Phosphatase Non-receptor Type 2 (PTPN2), PTPN2 (gene 5771) (UniProt P17706) (assay: NVS_ENZ_hPTPN2: NovaScreen (NVS) Enzymatic Assay for human Protein Tyrosine Phosphatase Non-receptor Type 2 (PTPN2) (AID 2283207)).
How it was run: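 Cell-free recombinant enzyme with fluorescent substrate, product separated by electrophoretic mobility shift; read 1 h after dosing. Primary screen single concentration (25 uM) in duplicate; actives followed in concentration series; loss of signal versus DMSO.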

For `NC(=O)Cn1c(=O)cc(CCN2CCN(c3nccc4sccc34)CC2)c2ccc(F)cc21`, which AC50 is on record?
The AC50 was inconclusive: 0.0793 µM.

For `O=C(O)c1[nH]n(-c2ccc(S(=O)(=O)O)cc2)c(=O)c1N=Nc1ccc(S(=O)(=O)O)cc1`, which AC50 is on record?
The AC50 was inconclusive: 23.6 µM.

For `CN(C)C(=O)NC1(c2ccccc2)CCN(CC[C@@]2(c3ccc(F)c(F)c3)CN(C(=O)c3ccccc3)CCO2)CC1`, which AC50 is on record?
Its AC50 is inconclusive: 23.5 µM.
